# Measurements: patent US8440695B2 (St Jude Children's Research Hospital, priority 2005, dated 2013)
# Assay: Body weight, metabolic rate (indirect calorimetry) and fasting serum lipids in mice
# Format: in vivo, mouse
# Conditions: ATM^+/+ apoE^−/− mice, 7 mg/kg/week, 8 weeks
smiles,measurement,value
"CCN(CC)CCCC(C)Nc1ccnc2cc(Cl)ccc12 (centres unmarked) [chloroquine, N4-(7-Chloro-4-quinolinyl)-N1,N1-diethyl-1,4-pentanediamine]",body weight,no effect
same,metabolic rate (indirect calorimetry),no effect
